Data from paper doi:10.1101/2022.03.29.486232.
These are yes or no findings as the source states them, for the method shown. In cells and extracts the contact can be indirect. Here binding means that the protein was enriched with, or labelled near, the bait; the list need not be complete. Where a sequence is shown, tags or fusion partners need not be part of it.

T1: leucine-rich glioma-inactivated 1 (LGI1), native, from mouse brain (mouse (endogenous in mouse brain)) (UniProt Q9JIA1)
T1 sequence: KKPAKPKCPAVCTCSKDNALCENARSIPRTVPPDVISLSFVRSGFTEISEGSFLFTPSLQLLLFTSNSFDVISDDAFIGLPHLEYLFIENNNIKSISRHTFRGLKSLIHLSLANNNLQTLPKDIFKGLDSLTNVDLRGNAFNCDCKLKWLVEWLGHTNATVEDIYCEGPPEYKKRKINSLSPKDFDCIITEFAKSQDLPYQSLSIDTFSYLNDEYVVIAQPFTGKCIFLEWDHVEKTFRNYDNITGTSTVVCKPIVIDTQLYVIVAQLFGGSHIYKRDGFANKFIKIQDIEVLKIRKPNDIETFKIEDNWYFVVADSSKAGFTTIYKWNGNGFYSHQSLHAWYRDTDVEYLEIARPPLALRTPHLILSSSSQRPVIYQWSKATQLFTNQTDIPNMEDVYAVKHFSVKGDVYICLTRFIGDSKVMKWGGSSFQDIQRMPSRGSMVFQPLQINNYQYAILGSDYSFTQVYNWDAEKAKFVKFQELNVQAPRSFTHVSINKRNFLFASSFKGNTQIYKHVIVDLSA

B1: TAG1 (CNTN2) (protein, UniProt Q61330 31-1014)
chain: QGTPATFGPVFEEQPVGLLFPEESAEDQVTLACRARASPPATYRWKMNGTEMNLEPGSRHQLMGGNLVIMSPTKAQDAGVYQCLASNPVGTVVSKEAVLRFGFLQEFSKEERDPVKTHEGWGVMLPCNPPAHYPGLSYRWLLNEFPNFIPTDGRHFVSQTTGNLYIARTNASDLGNYSCLATSHLDFSTKSVFSKFAQLNLAAEDPRLFAPSIKARFPPETYALVGQQVTLECFAFGNPVPRIKWRKVDGSLSPQWGTAEPTLQIPSVSFEDEGTYECEAENSKGRDTVQGRIIVQAQPEWLKVISDTEADIGSNLRWGCAAAGKPRPMVRWLRNGEPLASQNRVEVLAGDLRFSKLNLEDSGMYQCVAENKHGTIYASAELAVQALAPDFRQNPVRRLIPAARGGEISIPCQPRAAPKATILWSKGTEILGNSTRVTVTLDGTLIIRNISRSDEGKYTCFAENFMGKANSTGILSVRDATKITLAPSSADINVGDNLTLQCHASHDPTMDLTFTWTLDDFPVDFDKPGGHYRRASVKETIGDLTILNAQLRHGGTYTCMAQTVVDGASKEATVLVRGPPGPPGGVVVRDIGDTTVQLSWSRGFDNHSPIAKYTLQARTPPSGKWKQVRTNPVNIEGNAETAQVLGLMPWMDYEFRVSASNILGTGEPSGPSSRIRTKEAVPSVAPSGLSGGGGAPGELTINWTPMSREYQNGDGFGYLLSFRRQGSSSWQTARVPGADTQYFVYSNDSIHPYTPFEVKIRSYNRRGDGPESLTAIVYSAEEEPKVAPAKVWAKGSSSSEMNVSWEPVLQDMNGILLGYEIRYWKAGDKEAAADRVRTAGLDSSARVTGLYPNTKYHVTVRAYNRAGTGPASPSADAMTMKPPPRRPPGNISWTFSSSSLSLKWDPVVPLRNESTVTGYKMLYQNDLQPTPMLHLTSKNWIEIPVPEDIGHALVQIRTTGPGGDGIPAEVHIVRNGGTSMMVES
B2: Rab3a (protein, UniProt P63011 1-220)
chain: MASATDSRYGQKESSDQNFDYMFKILIIGNSSVGKTSFLFRYADDSFTPAFVSTVGIDFKVKTIYRNDKRIKLQIWDTAGQERYRTITTAYYRGAMGFILMYDITNEESFNAVQDWSTQIKTYSWDNAQVLLVGNKCDMEDERVVSSERGRQLADHLGFEFFEASAKDNINVKQTFERLVDVICEKMSESLDTADPAVTGAKQGPQLTDQQAPPHQDCAC
B3: Caspr2 (CNTNAP2) (protein, UniProt Q9CPW0 28-1332)
chain: APSTFQKCDEPLISGLPHVSFSSSSSLSSSYAPGYAKINKRGGAGGWSPSDSDHYQWLQVDFGNRKQISAIATQGRYSSSDWVTQYRMLYSDTGRNWKPYHQDGNIWAFPGNINSDSVVRHDLQHAVVARYVRIVPLDWNGEGHIGLRAEVYGCAYWADVINFDGHGVLPYRFRNKKMKTLKDVIALKFKTSESEGVLLHGEGQQGDYITLELKKAKLVLSLNLGSNQLGPIYGHTSVTSGSLLDDHHWHSVLIERQGRSINLTLDRSMQHFRTNGEFDYLDLDYEITFGGIPFSGKPSSSNRKNFKGCMESINYNGVNITDLARRKKLGPSNMGNLSFSCVEPYTVPVFFNATSYLEVPGRLNQDLFSVSFQFRTWNPSGLLLFSHFADNLGNVEIDLVESKVGVHINNTQTKTSQIDISSGSGLNDGQWHEVRFLAKENFAVLTIDGDEASAVRTNSPLQVKTGEKYFFGGFLNHMNNASYSALQPSFQGCMQLIQVDDQLVNLYEVAQRKPGSFANVTIDMCAIIDRCVPNHCEHGGKCSQTWDSFKCTCDETGYSGATCHNSIYEPSCEAYKHLGQTSNYYWIDPDGSGPLGPLKVYCNMTEDKVWTIVSHDLQMQTTVVGYNPEKYSVTQLIYSASMDQISAITSSAEYCEQYVSYFCRMSRLLNTPDGSPYTWWVGKANEKHYYWGGSEPGIQKCACGIERNCTDPKYYCNCDADYKQWRKDAGFLSYKDHLPVSQVVVGDTDRQGSEAKLSVGPLRCQGDRNYWNAASFPNPSSYLHFSTFQGETSADISFYFKTLIPRGVFLENLGNTDFIKLELKSATEVSFSFDVGNGPVEIVVRSPSPLNDDQWHRVTAERNVKQASLQVDRLPQQIRKAPTEGHTRLELYSQLFVGGAGGQQGFLGCIRSLRMNGVTLDLEERAKVTSGFKSGCSGHCTSYGANCENGGKCIEKYHGYSCDCSNTAYDGTFCNKDVGAFFEEGMWLRYNFQAPAVTARDTGSRAENSADQQQHLAPDLAQEQIHFSFSTTKAPCILLYVSSLTTDFLAVLVKPTGNLQIRYNLGGTREPFNIDVDHRNMANGQPHSVNITRHERTIILKLDHYPAVGYHLPSSSDTLFNSPKSLFLGKVIETGKIDQEIHKYNTPGFTGCLSRVQFNHIAPLKAALRQTNASAHVHIQGELVESNCGASPLTLSPMSSATDPWHLDHLDSASADFPYNPGQGQAIRNGVNRNSAIIGGVIAVVIFTILCTLVFLIRYMFRHKGTYHTNEAKGAESAESADAAIMNNDPNFTETIDESKKEWLI
B4: ADP/ATP translocase 2 (ADT2 / SLC25A5) (protein, UniProt P51881 1-298)
chain: MTDAAVSFAKDFLAGGVAAAISKTAVAPIERVKLLLQVQHASKQITADKQYKGIIDCVVRIPKEQGVLSFWRGNLANVIRYFPTQALNFAFKDKYKQIFLGGVDKRTQFWRYFAGNLASGGAAGATSLCFVYPLDFARTRLAADVGKAGAEREFKGLGDCLVKIYKSDGIKGLYQGFNVSVQGIIIYRAAYFGIYDTAKGMLPDPKNTHIFISWMIAQSVTAVAGLTSYPFDTVRRRMMMQSGRKGTDIMYTGTLDCWRKIARDEGSKAFFKGAWSNVLRGMGGAFVLVLYDEIKKYT
B5: doublecortin-like kinase 1 (DCLK1) (enzyme, UniProt Q9JLM8 1-756)
chain: MSFGRDMELEHFDERDKAQRYSRGSRVNGLPSPTHSAHCSFYRTRTLQTLSSEKKAKKVRFYRNGDRYFKGIVYAISPDRFRSFEALLADLTRTLSDNVNLPQGVRTIYTIDGLKKISSLDQLVEGESYVCGSIEPFKKLEYTKNVNPNWSVNVKTTSASRAVSSLATAKGGPSEVRENKDFIRPKLVTIIRSGVKPRKAVRILLNKKTAHSFEQVLTDITDAIKLDSGVVKRLYTLDGKQVMCLQDFFGDDDIFIACGPEKFRYQDDFLLDESECRVVKSTSYTKIASASRRGTTKSPGPSRRSKSPASTSSVNGTPGSQLSTPRSGKSPSPSPTSPGSLRKQRISQHGGSSTSLSSTKVCSSMDENDGPGEGDELGRRHSLQRGWRREESEEGFQIPATITERYKVGRTIGDGNFAVVKECIERSTAREYALKIIKKSKCRGKEHMIQNEVSILRRVKHPNIVLLIEEMDVPTELYLVMELVKGGDLFDAITSTSKYTERDASGMLYNLASAIKYLHSLNIVHRDIKPENLLVYEHQDGSKSLKLGDFGLATIVDGPLYTVCGTPTYVAPEIIAETGYGLKVDIWAAGVITYILLCGFPPFRGSGDDQEVLFDQILMGQVDFPSPYWDNVSDSAKELINMMLLVNVDQRFSAVQVLEHPWVNDDGLPENEHQLSVAGKIKKHFNTGPKPSSTAAGVSVIATTALDKERQVFRRRRNQDVRSRYKAQPAPPELNSESEDYSPSSSETVRSPNSPF
B6: ADAM23 (protein, UniProt Q9R1V7 284-829)
chain: AVNPSRGVFEEMKYLELMIVNDHKTYKKHRSSHAHTNNFAKSVVNLVDSIYKEQLNTRVVLVAVETWTEKDHIDITINPVQMLHDFSKYRQRIKQHADAVHLISRVTFHYKRSSLSYFGGVCSRIRGVGVNEYGLPMAVAQVLSQSLAQNLGIQWEPSSRKPKCECIESWGGCIMEETGVSHSRKFSKCSILEYRDFLQRGGGACLFNRPTKLFEPTECGNGYVEAGEECDCGFHVECYGVCCKKCSLSNGAHCSDGPCCNNTSCLFQSRGYECRDAVNSCDITEYCTGDSGQCPPNLHKQDGYSCNQNQGRCYNGECKTRDNQCQYIWGTKAAGSDKFCYEKLNTEGTEKGNCGKDGDRWIPCSKHDVFCGFLLCTNLTRAPRIGQLQGEIIPTSFYHQGRVIDCSGAHVVLDDDTDVGYVEDGTPCGPSMMCLDRKCLQIQALNMSSCPLDSRGKVCSGHGVCSNEATCICDFTWAGTDCSIRDPVRNPNPPKDEGPKGPSATNLIIGSIAGAILVAAIVLGGTGWGFKNVKKRRFDPTQQGPI
B7: contactin 1 (CNTN1) (protein, UniProt P12960 21-1001)
chain: DFTWHRRYGHGVSEEDKGFGPIFEEQPINTIYPEESLEGKVSLNCRARASPFPVYKWRMNNGDVDLTNDRYSMVGGNLVINNPDKQKDAGVYYCLASNNYGMVRSTEATLSFGYLDPFPPEERPEVKVKEGKGMVLLCDPPYHFPDDLSYRWLLNEFPVFITMDKRRFVSQTNGNLYIANVESSDRGNYSCFVSSPSITKSVFSKFIPLIPIPERTTKPYPADIVVQFKDIYTMMGQNVTLECFALGNPVPDIRWRKVLEPMPSTAEISTSGAVLKIFNIQLEDEGLYECEAENIRGKDKHQARIYVQAFPEWVEHINDTEVDIGSDLYWPCIATGKPIPTIRWLKNGYSYHKGELRLYDVTFENAGMYQCIAENAYGSIYANAELKILALAPTFEMNPMKKKILAAKGGRVIIECKPKAAPKPKFSWSKGTEWLVNSSRILIWEDGSLEINNITRNDGGIYTCFAENNRGKANSTGTLVITNPTRIILAPINADITVGENATMQCAASFDPALDLTFVWSFNGYVIDFNKEITHIHYQRNFMLDANGELLIRNAQLKHAGRYTCTAQTIVDNSSASADLVVRGPPGPPGGLRIEDIRATSVALTWSRGSDNHSPISKYTIQTKTILSDDWKDAKTDPPIIEGNMESAKAVDLIPWMEYEFRVVATNTLGTGEPSIPSNRIKTDGAAPNVAPSDVGGGGGTNRELTITWAPLSREYHYGNNFGYIVAFKPFDGEEWKKVTVTNPDTGRYVHKDETMTPSTAFQVKVKAFNNKGDGPYSLVAVINSAQDAPSEAPTEVGVKVLSSSEISVHWKHVLEKIVESYQIRYWAGHDKEAAAHRVQVTSQEYSARLENLLPDTQYFIEVGACNSAGCGPSSDVIETFTRKAPPSQPPRIISSVRSGSRYIITWDHVVALSNESTVTGYKILYRPDGQHDGKLFSTHKHSIEVPIPRDGEYVVEVRAHSDGGDGVVSQVKISGVSTLS
B8: VAPA (Vesicle-associated membrane protein-associated protein A) (protein, UniProt Q9WV55 1-249)
chain: MASASGAMAKHEQILVLDPPSDLKFKGPFTDVVTTNLKLQNPSDRKVCFKVKTTAPRRYCVRPNSGIIDPGSIVTVSVMLQPFDYDPNEKSKHKFMVQTIFAPPNISDMEAVWKEAKPDELMDSKLRCVFEMPNENDKLNDMEPSKAVPLNASKQDGPLPKPHSVSLNDTETRKLMEECKRLQGEMMKLSEENRHLRDEGLRLRKVAHSDKPGSTSAVSFRDNVTSPLPSLLVVIAAIFIGFFLGKFIL

What follows are binders tested against T1, leucine-rich glioma-inactivated 1 (LGI1), native, from mouse brain (mouse (endogenous in mouse brain)) (assay: affinity purification with mass spectrometry).

binding, binds:
B1
B2
B3
B4
B5
B6
B7
B8
